{"source": "patent US6858589B2", "about": "“Methods of and compositions for potentiating the action of agents active on cell wall sites of the susceptible bacteria” (priority 1996, dated 2005)", "system": "E. coli NCTC 10418", "experiment": "Kill kinetics and regrowth of E. coli after gentamicin bolus pre-exposure followed by maintained cephazolin", "format": "cell-based, Escherichia coli", "conditions": "in the presence of gentamicin", "source_text": "In comparative experiments described in the examples herein, a reference strain of Escherichi coli (E. coli NCTC 10418) was exposed to constant concentrations of cephazolin in the culture medium (see FIGS. 1A and IIA).\nThe experimental work described herein involved testing bacterial response while changing aminoglycoside concentrations with time in the test tube, and mimics closely measurements made in man under clinical conditions (Bastone E B, Li S C, Ioannides-Demos L L, Spicer J., McLean A J, “Kill kinetics and regrowth patterns of E. coli exposed to gentamicin concentration-time profiles simulating in vivo bolus or infusion dosing”, Antimicrob Agents Chemother. 37:914-917, 1993).\nThe form of this profile is governed in vivo by distribution into tissue from the central circulation. In in vitro experiments, gentamicin was removed (T=0 time) by centrifugation and washing with antibiotic-free medium. The incubation was reconstituted with media containing 0 mg/l, 1 mg/l or 2 mg/l cephazolin (see FIG. IA).\nIn FIG. IB, it can be seen that the pattern of growth of control organisms (not exposed to antibiotic) is designated by the dotted line ( - - - ), while the growth patterns of test organisms are represented by the solid lines with symbols indicating each type of treatment or test (FIG. IB).", "note": "At least one structure is not confirmed: it was looked up by name or label, or the drawing left a doubt.", "data": [{"compound": "Cc1nnc(SCC2=C(C(=O)O)N3C(=O)[C@@H](NC(=O)Cn4cnnn4)[C@H]3SC2)s1", "note": "[cephazolin]", "values": [{"measurement": "Maintained concentration/MIC ratio required", "value": "2:1"}]}]}
